Reference: article PMC12040169 (PLOS Biology, 2025)
Some of the results follow.

tested on: T1, CTL2-GFP (C. trachomatis L2/434/Bu, GFP-expressing); design: species or system HeLa; Intracellular C. trachomatis growth in HeLa cells, bulk GFP fluorescence relative to DMSO; conditions: bulk GFP, single well; 28.5 h, 10 µM; inhibitor
T1 construct: L2/434/Bu, GFP-expressing

SMILES | % of control remaining
Cc1ccccc1C(=O)N1CCN(S(=O)(=O)c2sc(C(=O)O)c(C)c2C(=O)O)CC1 [CBK297146] | 145.404%
Nc1nc2cccnc2cc1-c1ccsc1 [CBK081214] | 147.685%
Cc1nc(N2CCOCC2)[nH]c(=O)c1CCC(=O)Nc1ccccc1F [CBK305003] | 153.923%
COc1cccc(CNC(=O)c2cn[nH]c2-c2cccc(C)c2)c1 [CBK288056] | 101.322%
CN1CCN(CC(=O)Nc2ccc([N+](=O)[O-])cc2C(=O)c2ccccc2)CC1 [CBK265772] | 164.179%
Cc1noc(C)c1S(=O)(=O)Nc1nc(-c2cccnc2)cs1 [CBK067266] | 114.658%
CN(CC1OCCc2ccccc21)C(=O)CCC1CCCO1 (stereo not shown) [CBK282030] | 128.002%
O=C1Nc2ccc(S(=O)(=O)NCCCO)c3cccc1c23 [CBK262033] | 100%
O=C(Nc1snnc1-c1ccc(Cl)cc1)c1ccco1 [CBK153242] | 85.0333%
Cc1ccc(NC(=O)CSc2nnc3c4c5c(sc4nc(-n4nc(C)cc4C)n23)COC(C)(C)C5)cc1 [CBK268675] | 136.41%
COc1cncc(-c2cnc3[nH]c(=O)n(C4CCCCC4)c3n2)c1 [CBK064230] | 91.3417%
Cc1cc(N2CCN(CC(=O)c3ccc(Cl)cc3)CC2)c2ccccc2n1 [CBK066868] | 112.554%
COc1ccc(C(=O)O)cc1S(=O)(=O)Nc1c(-c2cccs2)nc2cc(C)ccn12 [CBK297484] | 146.764%
CC(C)Nc1cc(SCCc2ccccn2)ncn1 [CBK105617] | 87.6623%
CCN(CC)CC1CCCN(C(=O)CCn2ccc3ccncc32)C1 (stereo not shown) [CBK285174] | 149.496%
CCOC(=O)C1=C(CSc2nccn2C)NC(=O)NC1c1ccc2c(c1)OCO2 (stereo not shown) [CBK268746] | 133.507%
COc1c(I)cc(Br)cc1/C=N/NC(=O)CC#N [CBK025764] | 119.072%
COc1ccnc(N2C[C@@H]3OCC(=O)N(Cc4ccccc4)[C@@H]3C2)n1 [CBK289666] | 96.5115%
CC(=O)OC1CCN(C(=O)c2cccc(C#N)c2)CC1 [CBK304648] | 118.999%
CC(C)c1ccc(NC(=O)CSc2nnc(CN3CCOCC3)n2C)cc1 [CBK268235] | 128.95%
Cc1c(C(c2ccc(C(=O)O)cc2)c2c(C)n(C)n(-c3ccccc3)c2=O)c(=O)n(-c2ccccc2)n1C [CBK261691] | 113.389%
CCOC(=O)CC(=O)CSc1nc2nc(C)cc(C)n2n1 [CBK268469] | 126.448%
CC(Oc1ccccc1)c1nnc(SCC(=O)Nc2ccc(Br)c(Cl)c2)n1C (stereo not shown) [CBK266299] | 90.0498%
O=C(O)CCSc1nnc(-c2cccnc2)n1-c1ccccc1 [CBK268734] | 106.605%
O=C(c1cccc(F)c1)N1CCC(c2n[nH]c3ncccc23)CC1 [CBK284907] | 98.2665%
Cc1cc(O)ccc1-c1cncc(-c2ccc(O)cc2C)n1 [CBK115689] | 122.65%
O=C(c1ccco1)N1CCc2cc(-c3cn4c(n3)CCCC4)ccc21 [CBK282893] | 112.985%

SMILES | % of control remaining
CC(=O)Nc1ccc(CNC(=O)CN(C)CC2CCCCO2)cc1 (stereo not shown) [CBK306567] | 147.918%
CN(Cc1c(F)cccc1Cl)C(=O)CSc1nc(CC(=O)O)cs1 [CBK296708] | 121.848%
NC(=O)c1ccc(NC(=O)CSc2nnc(-c3ccncc3)n2-c2ccc(Br)cc2)cc1 [CBK266202] | 132.885%
Nc1ncnc2c1nc(N)n2[C@H]1C[C@@H](O)[C@@H](CO)O1 [CBK201222] | 93.3019%
OCc1ccnc2ccccc12 [CBK001746] | 126.074%
CC[C@H]1CN(C(=O)NC(C)C)CC[C@H]1CC(=O)NCc1ccc2c(c1)OCO2 [CBK288775] | 146.754%
C=CCNCc1cc2c(C)nn(-c3ccccc3)c2[nH]c1=O [CBK282898] | 112.607%
CCOc1ccc(C(C)(N)C(=O)O)cc1 (stereo not shown) [CBK261362] | 78.2081%
COc1ccc2nc(NC(=O)c3cccc(N4C(=O)CCC4=O)c3)sc2c1 [CBK287351] | 124.664%
COc1ccc(-c2c[nH]c([C@@H]3COCCN3Cc3ccccc3O)n2)cc1 [CBK289296] | 113.668%
O=C(Nc1ccc2c(c1)OCO2)c1ccc(-c2ccccc2)nc1NCCc1ccccn1 [CBK076574] | 103.268%
O=C(COc1ccc(-c2cc(-c3ccccc3)c3cc(Cl)ccc3n2)cc1)N/N=C/c1ccc2ncccc2c1 [CBK263365] | 115.623%
O=C(O)CCC(=O)Nc1ccc2c(c1)Cc1ccccc1-2 [CBK286611] | 114.468%
Cc1nc(-c2ccccc2)ccc1C(=O)Nc1nc(CC(N)=O)cs1 [CBK295195] | 129.484%
O=C(/C=C/c1ccc(-c2ccccc2[N+](=O)[O-])o1)Nc1ccc(-c2nc3ncccc3o2)cc1 [CBK263434] | 110.043%
O=C1c2ccccc2C(=O)N1CCCSc1nnc(-c2ccncc2)n1-c1ccccc1 [CBK263419] | 102.347%
CC(C)(C)C1=CC2=NC3(CCCCCC3)[C@@H]3C[C@@H](O)[C@@H](O)[C@@H]3N2O1 [CBK303252] | 132.715%
CC(C)NC(=O)c1sc2ccccc2c1C1CCN(S(=O)(=O)c2ccccc2)C1 (stereo not shown) [CBK285927] | 92.0966%
Cc1cccc(N(CC(O)CN2C(=O)NC(C)(C)C2=O)S(=O)(=O)c2ccccc2)c1 (stereo not shown) [CBK263582] | 115.154%
Cc1csc(C(Cc2cccs2)NC(=O)C2CCOCC2)n1 (stereo not shown) [CBK285006] | 122.887%
c1ccc(CNc2nnc(-c3ccccc3)s2)cc1 [CBK074928] | 59.2586%
Cc1nc2c(c(=O)[nH]1)CC[C@@H]1CN(C(=O)c3cccs3)C[C@H]21 [CBK284406] | 123.555%
COc1ccc2c(c1)CCCN2C(=O)CCn1ccc(C)n1 [CBK282217] | 104.133%
NCC(=O)N(CCC1CCCC1)c1cccc2ccccc12 [CBK011922C] | 114.205%
CC1CCc2c(sc3ncnc(OCC(=O)N4CCCCC4)c23)C1 (stereo not shown) [CBK304979] | 94.4638%
COc1ccc(Cl)cc1NC(=O)CC1NC2CCCCC2NC1=O (stereo not shown) [CBK267318] | 160.607%
Fc1ccccc1CN(CCCn1ccnc1)Cc1ccoc1 [CBK283024] | 121.876%

SMILES | % of control remaining
Cn1ncc2c(NCC(=O)N3CCNCC3)nc(C(C)(C)C)nc21 [CBK307702] | 73.7628%
O=S(=O)(NCCCN1CCN(Cc2ccccc2)CC1)c1cccc(Cl)c1Cl [CBK074655] | 101.823%
COc1nccnc1-c1ccc(SC)cc1 [CBK106795] | 122.998%
COc1ccc(-c2nn(-c3ccccc3)cc2C(=O)Nc2ccc(C(=O)O)cc2)cc1OC [CBK296112] | 138.87%
Cc1ccccc1NC(=O)NC(=O)C1CCN(S(C)(=O)=O)CC1 [CBK034862] | 116.129%
c1ccc2nc(N3CCCC3)c(SCCc3cnccn3)nc2c1 [CBK103695] | 105.445%
CN(CCN(C)/N=C/c1cccc2ccccc12)/N=C/c1cccc2ccccc12 [CBK262153] | 111.194%
COCCCn1c(=O)[nH]c2ncc(-c3cccc(CO)c3)nc21 [CBK065104] | 159.733%
CC(=O)NCC(=O)N1C[C@@H]2CCCCN(Cc3cccc(F)c3)[C@@H]2C1 [CBK285515] | 117.292%
CC(N(C)S(=O)(=O)c1ccc(-n2ncc(Cl)c(Cl)c2=O)cc1)C(C)(C)C (stereo not shown) [CBK304544] | 75.9275%
CC(NC(=O)CS(=O)(=O)Cc1ccc(C#N)cc1)c1ccc(C#N)cc1 (stereo not shown) [CBK297791] | 117.076%
Cc1nc2ccccn2c1-c1csc(Nc2cccc(C(=O)O)c2)n1 [CBK263303B] | 123.043%
O=C(Nc1cccc2c(NC(=O)N3CCCCC3)cccc12)N1CCCCC1 [CBK010775] | 19.1934%
CCC(=O)Nc1ccc2oc(-c3cccc(C)c3)nc2c1 [CBK263065] | 100%
O=C(Cc1ccc2c(c1)CCCO2)NCc1ccccc1-n1ccnc1 [CBK281463] | 115.636%
CC[C@H](Cn1c(=O)oc2ccccc21)NC(=O)c1cccs1 [CBK284540] | 153.357%
CN(C(=O)C12CCOCC1CN(c1nccnc1C#N)C2)C1CCCC1 (stereo not shown) [CBK304244] | 134.948%
CCC(C)NC(=O)Cn1c(C2CCNCC2)cc2cccnc21 (stereo not shown) [CBK285003] | 95.2459%
CC(C)CC(C(=O)Nc1ccc(C2CCCC2)cc1)N1CCN(C)CC1 (stereo not shown) [CBK024386C] | 110.193%
Cn1cc(CN(C(=O)c2nc(N)nc3c2CCCC3)C2CC2)cn1 [CBK307352] | 131.044%
c1cc(CCNc2nccn3ccnc23)ccn1 [CBK037976] | 172.039%
Cc1cc(C(=O)N2CCN(Cc3ccc4c(c3)OCO4)CC2)nn1C [CBK074832] | 103.535%
O=C(NCCc1ccncc1)c1cccs1 [CBK056969] | 143.552%
CCOC(=O)Cc1nnc(-c2ccc(Cl)cc2)[nH]1 [CBK021882] | 101.638%
Cc1ccc2nc(-c3ccc(-c4ccc(C(C)C)cc4)o3)cc(C(=O)O)c2c1 [CBK300083] | 67.14%

Some of the entries so far, as tab-separated lines:
SMILES	% of control remaining
Cn1ncc2c(NCC(=O)N3CCNCC3)nc(C(C)(C)C)nc21 [CBK307702]	73.7628%
O=S(=O)(NCCCN1CCN(Cc2ccccc2)CC1)c1cccc(Cl)c1Cl [CBK074655]	101.823%
COc1nccnc1-c1ccc(SC)cc1 [CBK106795]	122.998%
COc1ccc(-c2nn(-c3ccccc3)cc2C(=O)Nc2ccc(C(=O)O)cc2)cc1OC [CBK296112]	138.87%
Cc1ccccc1NC(=O)NC(=O)C1CCN(S(C)(=O)=O)CC1 [CBK034862]	116.129%
c1ccc2nc(N3CCCC3)c(SCCc3cnccn3)nc2c1 [CBK103695]	105.445%
CN(CCN(C)/N=C/c1cccc2ccccc12)/N=C/c1cccc2ccccc12 [CBK262153]	111.194%
COCCCn1c(=O)[nH]c2ncc(-c3cccc(CO)c3)nc21 [CBK065104]	159.733%
CC(=O)NCC(=O)N1C[C@@H]2CCCCN(Cc3cccc(F)c3)[C@@H]2C1 [CBK285515]	117.292%
CC(N(C)S(=O)(=O)c1ccc(-n2ncc(Cl)c(Cl)c2=O)cc1)C(C)(C)C (stereo not shown) [CBK304544]	75.9275%
CC(NC(=O)CS(=O)(=O)Cc1ccc(C#N)cc1)c1ccc(C#N)cc1 (stereo not shown) [CBK297791]	117.076%
Cc1nc2ccccn2c1-c1csc(Nc2cccc(C(=O)O)c2)n1 [CBK263303B]	123.043%
O=C(Nc1cccc2c(NC(=O)N3CCCCC3)cccc12)N1CCCCC1 [CBK010775]	19.1934%
O=C(Cc1ccc2c(c1)CCCO2)NCc1ccccc1-n1ccnc1 [CBK281463]	115.636%
CC[C@H](Cn1c(=O)oc2ccccc21)NC(=O)c1cccs1 [CBK284540]	153.357%
CN(C(=O)C12CCOCC1CN(c1nccnc1C#N)C2)C1CCCC1 (stereo not shown) [CBK304244]	134.948%
CCC(C)NC(=O)Cn1c(C2CCNCC2)cc2cccnc21 (stereo not shown) [CBK285003]	95.2459%
CC(C)CC(C(=O)Nc1ccc(C2CCCC2)cc1)N1CCN(C)CC1 (stereo not shown) [CBK024386C]	110.193%
Cn1cc(CN(C(=O)c2nc(N)nc3c2CCCC3)C2CC2)cn1 [CBK307352]	131.044%
c1cc(CCNc2nccn3ccnc23)ccn1 [CBK037976]	172.039%
O=C(NCCc1ccncc1)c1cccs1 [CBK056969]	143.552%
